These are yes or no findings as the source states them, for the method shown. Binding seen in cells or lysates may run through a third protein. Some results given as binding are weak or reduced against the parent protein; the word gives no strength.
What follows are substances tested against T1, BAG5 (UniProt Q9UL15) (assay: co-IP; NP-40 lysate (50 mM Tris-HCl pH 7.4, 150 mM NaCl) with anti-Flag magnetic beads overnight at 4 °C, four washes; immunoblot; cell line not stated).
T1 sequence: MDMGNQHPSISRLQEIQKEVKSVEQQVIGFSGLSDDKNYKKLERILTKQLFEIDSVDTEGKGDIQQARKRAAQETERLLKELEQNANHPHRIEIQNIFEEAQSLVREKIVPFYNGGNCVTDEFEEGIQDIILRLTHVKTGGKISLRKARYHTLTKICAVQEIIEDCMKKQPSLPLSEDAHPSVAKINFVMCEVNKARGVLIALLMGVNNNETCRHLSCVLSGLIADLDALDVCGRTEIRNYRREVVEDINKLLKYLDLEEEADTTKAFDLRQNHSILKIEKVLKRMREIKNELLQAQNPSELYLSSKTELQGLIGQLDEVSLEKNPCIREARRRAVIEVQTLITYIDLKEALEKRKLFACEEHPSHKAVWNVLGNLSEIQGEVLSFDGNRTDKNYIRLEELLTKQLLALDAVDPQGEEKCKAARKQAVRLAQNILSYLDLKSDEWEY

Amino acid sequences for entries named in this document (tags omitted).
UniProt O00425: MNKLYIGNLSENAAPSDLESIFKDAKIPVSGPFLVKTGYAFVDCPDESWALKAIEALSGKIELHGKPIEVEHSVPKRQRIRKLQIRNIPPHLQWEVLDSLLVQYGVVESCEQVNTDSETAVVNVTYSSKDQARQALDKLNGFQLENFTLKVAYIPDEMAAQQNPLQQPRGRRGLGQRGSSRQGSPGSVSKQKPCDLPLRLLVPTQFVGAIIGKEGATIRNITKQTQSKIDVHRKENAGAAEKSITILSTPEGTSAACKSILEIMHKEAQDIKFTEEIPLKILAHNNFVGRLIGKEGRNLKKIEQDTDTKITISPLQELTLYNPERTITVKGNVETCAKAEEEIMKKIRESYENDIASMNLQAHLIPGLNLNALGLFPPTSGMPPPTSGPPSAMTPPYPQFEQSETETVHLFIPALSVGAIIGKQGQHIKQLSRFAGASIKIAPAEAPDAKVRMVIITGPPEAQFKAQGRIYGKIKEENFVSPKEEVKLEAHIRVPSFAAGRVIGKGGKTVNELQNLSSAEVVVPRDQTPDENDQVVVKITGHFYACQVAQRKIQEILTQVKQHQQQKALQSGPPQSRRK
UniProt Q9Y6M1: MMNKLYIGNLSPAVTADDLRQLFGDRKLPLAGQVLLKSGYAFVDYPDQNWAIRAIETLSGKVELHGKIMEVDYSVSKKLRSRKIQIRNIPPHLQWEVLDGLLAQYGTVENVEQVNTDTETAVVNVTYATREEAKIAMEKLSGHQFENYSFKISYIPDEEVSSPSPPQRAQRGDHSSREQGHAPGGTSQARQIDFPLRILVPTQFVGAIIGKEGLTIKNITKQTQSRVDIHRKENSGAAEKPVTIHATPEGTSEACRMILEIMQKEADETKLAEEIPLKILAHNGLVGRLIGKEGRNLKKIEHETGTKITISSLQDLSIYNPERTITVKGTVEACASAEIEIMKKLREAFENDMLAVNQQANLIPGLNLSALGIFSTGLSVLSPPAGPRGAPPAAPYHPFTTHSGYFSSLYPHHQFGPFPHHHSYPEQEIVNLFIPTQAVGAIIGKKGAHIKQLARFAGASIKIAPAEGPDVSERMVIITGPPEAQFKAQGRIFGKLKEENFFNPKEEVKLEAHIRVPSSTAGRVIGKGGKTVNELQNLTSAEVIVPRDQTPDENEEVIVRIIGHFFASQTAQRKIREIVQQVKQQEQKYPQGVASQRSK
UniProt P11142: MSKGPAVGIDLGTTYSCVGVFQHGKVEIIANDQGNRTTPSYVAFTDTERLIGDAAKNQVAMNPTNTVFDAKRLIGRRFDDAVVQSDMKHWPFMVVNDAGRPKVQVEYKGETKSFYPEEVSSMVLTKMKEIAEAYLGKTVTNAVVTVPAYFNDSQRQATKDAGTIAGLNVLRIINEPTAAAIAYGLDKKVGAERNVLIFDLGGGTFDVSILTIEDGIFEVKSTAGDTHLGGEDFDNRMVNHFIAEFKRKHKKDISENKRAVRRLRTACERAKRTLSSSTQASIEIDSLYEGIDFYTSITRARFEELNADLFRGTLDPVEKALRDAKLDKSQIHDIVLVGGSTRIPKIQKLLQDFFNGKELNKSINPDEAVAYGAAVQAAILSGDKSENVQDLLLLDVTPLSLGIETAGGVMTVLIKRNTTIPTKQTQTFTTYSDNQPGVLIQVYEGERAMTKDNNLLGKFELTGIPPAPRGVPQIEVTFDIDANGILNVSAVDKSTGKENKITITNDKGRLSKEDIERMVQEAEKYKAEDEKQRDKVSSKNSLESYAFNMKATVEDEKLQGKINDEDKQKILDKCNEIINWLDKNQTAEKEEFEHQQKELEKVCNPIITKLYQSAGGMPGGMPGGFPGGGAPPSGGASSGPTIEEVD

binding, binds:
IGF2BP3 (from UniProt O00425 1-579)
IGF2BP2 (from UniProt Q9Y6M1 1-599)
HSPA8 (from UniProt P11142 1-646)

Reference: PMC12331601
